# Assay results published in the supplement of paper PMC8256030.
# Where “and” joins values, the source holds several entries; their conditions need not be identical. Equal entries are not always repeated. Structures can show the parent of a compound that is named as a salt. This is one part of the list. Repeats in this data set agree poorly, so a single value says little.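 HEK293T cells were given each compound shortly before transfection with a reporter in which red mCherry is followed by the SARS-CoV-2 frameshift element and then GFP in the −1 frame, so GFP appears only after frameshifting.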
# System: HEK293T
# Assay: percent viability (nuclei count) relative to control; higher = more viable cells
# Settings: 10 µM; 24 h
row,SMILES,percent viability
1,CCCCc1ccc(C(N)=O)nc1 [bupicomide],135%
2,C[C@@H]1C[C@H]2[C@@H]3C[C@H](F)C4=CC(=O)C=C[C@]4(C)[C@@]3(F)[C@@H](O)C[C@]2(C)[C@@]1(O)C(=O)COC(=O)C(C)(C)C,154%
3,CN[C@@H]1[C@@H](O)[C@@H](O[C@@H]2[C@@H](O)[C@H](O[C@H]3OC(CN)=CC[C@H]3N)[C@@H](N)C[C@H]2N)OC[C@]1(C)O,148%
4,Cc1cc(/C=C/C#N)cc(C)c1Nc1ccnc(Nc2ccc(C#N)cc2)n1 [rilpivirine],131%
5,COc1ccc2cc([C@H](C)C(=O)O)ccc2c1 [naproxen],233%
6,CC(Oc1ccccc1)C(=O)N[C@@H]1C(=O)N2[C@@H]1SC(C)(C)[C@@H]2C(=O)O (stereo not given in full),201%
7,CO[C@@H]1[C@@H](OC(N)=O)[C@@H](O)[C@H](Oc2ccc3c(O)c(NC(=O)c4ccc(O)c(CC=C(C)C)c4)c(=O)oc3c2C)OC1(C)C,303%
8,CCOC(N)=O [urethane],125%
9,CS(=O)(=O)c1ccc([C@@H](O)[C@@H](CF)NC(=O)C(Cl)Cl)cc1 [florfenicol],177%
10,CSCC[C@H](NC(=O)[C@H](Cc1c[nH]c2ccccc12)NC(=O)CCNC(=O)OC(C)(C)C)C(=O)N[C@@H](CC(=O)O)C(=O)N[C@@H](Cc1ccccc1)C(N)=O [Pentagastrin],310%
11,CCCCCCCCCCCCCCCCCCOP(=O)([O-])OC1CC[N+](C)(C)CC1,173%
12,COc1nc(N)nc2c1ncn2[C@@H]1O[C@H](CO)[C@@H](O)[C@@H]1O [nelarabine],262%
13,OCC(O)C(O)C(O)C(O)CO (stereo not given),333%
14,Cc1cc(=O)[nH]c(=S)[nH]1,127%
15,O=C(O)Cn1c(=O)n(Cc2ccc(Br)cc2F)c(=O)c2ccc(Cl)cc21 [zenarestat],82.1%
16,OC(CN1CCC(Cc2ccc(F)cc2)CC1)c1ccc(Cl)cc1 (stereo not given) [eliprodil],94.5%
17,CC[C@@H]1C(=O)OC[C@@H]1Cc1cncn1C [Pilocarpine·HCl],284%
18,CC(C)C(=O)Oc1ccc(CO)cc1[C@H](CCN(C(C)C)C(C)C)c1ccccc1 [Fesoterodine],294%
19,NC1=NCC2c3ccccc3Cc3ccccc3N12 (stereo not given) [epinastine],135%
20,CN1c2c(oc(=O)n(-c3ccccn3)c2=O)-c2ccccc2S1(=O)=O [droxicam],231%

# Copied from the list.
# For percent viability, `O=C(O)Cn1c(=O)n(Cc2ccc(Br)cc2F)c(=O)c2ccc(Cl)cc21` [zenarestat] is listed with 82.1%
# For percent viability, `CN1c2c(oc(=O)n(-c3ccccn3)c2=O)-c2ccccc2S1(=O)=O` [droxicam] is listed with 231%

# Next part

row,SMILES,percent viability
1,CCn1nc(C(=O)O)c(=O)c2cc3c(cc21)OCO3 [cinoxacin],126%
2,CCCOc1ccc(C(=O)CCN2CCCCC2)cc1 [propipocaine],113%
3,NC(=O)Cc1cccc(C(=O)c2ccccc2)c1N [nepafenac],242%
4,CCN(CC)CCNC(=O)c1ccc(N)cc1 [procainamide],138% and 289%
5,O=C(Nc1cccc(C2=NCCN2)c1)Nc1cccc(C2=NCCN2)c1 [imidocarb],218%
6,CNS(=O)(=O)Cc1ccc2[nH]cc(CCCN3CCN(c4ncncc4OC)CC3)c2c1 [avitriptan],80%
7,CN1CCC(=C2c3ccccc3CCc3sccc32)CC1 [pizotifen],197%
8,CCOC(=O)C(C#N)=C(c1ccccc1)c1ccccc1 [etocrilene],79.5%
9,CCCN(CCc1cccs1)[C@H]1CCc2c(O)cccc2C1 [Neupro],186%
10,CN1C(=N)N(c2ccccc2)CC1=O [azolimine],328%
11,O=C(Nc1ccc(Cl)cc1)Nc1ccc(Cl)c(Cl)c1 [triclocarban],51.9%
12,COc1ccc(CN(CCN(C)C)c2ncccn2)cc1 [thonzylamine],118%
13,CN(C)c1cc(NC(=O)CNC(C)(C)C)c(O)c2c1C[C@H]1C[C@H]3[C@H](N(C)C)C(=O)C(C(N)=O)=C(O)[C@@]3(O)C(=O)C1=C2O [Tigecycline],284%
14,CC1(C)S[C@@H]2[C@H](N3C(=O)[C@@H](c4ccccc4)NC3(C)C)C(=O)N2[C@H]1C(=O)O [Hetacillin],215%
15,NNC(=O)c1ccncc1 [isoniazid],261% and 176%
16,CC(C)(C)c1ccc(CN2CCN(C(c3ccccc3)c3ccc(Cl)cc3)CC2)cc1 (stereo not given) [buclizine],188%
17,CC1(C)S[C@@H]2[C@H](NC(=O)COc3ccccc3)C(=O)N2[C@H]1C(=O)O [phenoxymethylpenicillin],326%
18,CC(O)CN(CCN(CC(C)O)CC(C)O)CC(C)O (stereo not given) [edetol],213%
19,COc1ccc(CN2CCN(C(c3ccc(F)cc3)c3ccc(F)cc3)CC2)c(OC)c1OC [lomerizine],168% and 159%
20,NS(=O)(=O)c1cc2c(cc1Cl)NC(CSCc1ccccc1)NS2(=O)=O (stereo not given) [hydrobentizide],190%
